This note sets out measurements from publication PMC8408156.

These are yes or no findings as the source states them, for the method shown. Binding can be weak; no strength is given.

This experiment concerns the target integrin αVβ3. As to the kind of experiment: ELISA; receptor-ligand in vitro binding assay: integrin αVβ3 coated on a high-binding 96-well plate in carbonate-bicarbonate buffer (4 °C overnight), blocked with PBS (0.1% Tween, 1% BSA); IBSP with or without natural compounds incubated 2 h at room temperature; bound IBSP detected with goat anti-IBSP and AP- or HRP-tagged anti-goat IgG, absorbance read; both purified. In general terms: ELISA stands for enzyme-linked immunosorbent assay.

B1: Integrin-Binding Sialoprotein (IBSP) (ligand, UniProt P21815 17-317)
chain: FSMKNLHRRVKIEDSEENGVFKYRPRYYLYKHAYFYPHLKRFPVQGSSDSSEENGDDSSEEEEEEEETSNEGENNEESNEDEDSEAENTTLSATTLGYGEDATPGTGYTGLAAIQLPKKAGDITNKATKEKESDEEEEEEEEGNENEESEAEVDENEQGINGTSTNSTEAENGNGSSGGDNGEEGEEESVTGANAEDTTETGRQGKGTSKTTTSPNGGFEPTTPPQVYRTTSPPFGKTTTVEYEGEYEYTGANEYDNGYEIYESENGEPRGDNYRAYEDEYSYFKGQGYDGYDGQNYYHHQ
Regarding B1, the binding entry is listed as “binds”.
